Measurements reported in paper PMC12046003.
Results are given in words; binding and its absence hold for the method and conditions named. In cells and extracts the contact can be indirect. Some results given as binding are weak or reduced against the parent protein; the word gives no strength. Where a sequence is shown, tags or fusion partners need not be part of it.

By UniProt entry, the sequences of proteins in these tests, tags left out.
UniProt P06803: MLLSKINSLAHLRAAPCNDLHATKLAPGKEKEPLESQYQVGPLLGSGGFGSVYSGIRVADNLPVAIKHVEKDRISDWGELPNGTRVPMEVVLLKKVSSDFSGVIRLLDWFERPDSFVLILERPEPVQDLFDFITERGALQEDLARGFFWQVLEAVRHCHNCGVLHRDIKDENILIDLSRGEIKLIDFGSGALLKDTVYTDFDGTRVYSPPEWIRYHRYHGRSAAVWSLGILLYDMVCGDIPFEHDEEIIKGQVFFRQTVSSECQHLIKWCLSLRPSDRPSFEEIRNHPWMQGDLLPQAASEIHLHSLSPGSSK
UniProt P31749: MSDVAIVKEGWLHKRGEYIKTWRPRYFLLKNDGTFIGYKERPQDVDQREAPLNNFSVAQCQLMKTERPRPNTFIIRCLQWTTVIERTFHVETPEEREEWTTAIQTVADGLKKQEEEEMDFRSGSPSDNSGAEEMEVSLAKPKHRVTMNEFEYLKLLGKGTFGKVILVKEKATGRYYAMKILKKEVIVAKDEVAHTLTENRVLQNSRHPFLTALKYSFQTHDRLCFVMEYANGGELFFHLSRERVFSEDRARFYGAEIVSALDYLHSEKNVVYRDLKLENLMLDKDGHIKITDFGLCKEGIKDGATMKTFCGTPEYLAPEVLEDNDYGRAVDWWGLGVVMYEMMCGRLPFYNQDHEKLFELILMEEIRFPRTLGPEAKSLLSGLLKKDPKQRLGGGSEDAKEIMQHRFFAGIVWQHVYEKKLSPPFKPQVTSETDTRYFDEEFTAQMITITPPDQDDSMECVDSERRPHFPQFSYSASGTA

Tests used:
Assay in all cases: co-IP; HEK 293T cells transfected 36 h with the indicated plasmids, lysed in RIPA buffer; immunoprecipitation with anti-Flag antibody overnight at 4 °C, protein G or A Sepharose; immunoblot
[1] = biological target: T1, Flag-tagged full-length TRAF6 (mouse) (UniProt P70196)
T1 sequence: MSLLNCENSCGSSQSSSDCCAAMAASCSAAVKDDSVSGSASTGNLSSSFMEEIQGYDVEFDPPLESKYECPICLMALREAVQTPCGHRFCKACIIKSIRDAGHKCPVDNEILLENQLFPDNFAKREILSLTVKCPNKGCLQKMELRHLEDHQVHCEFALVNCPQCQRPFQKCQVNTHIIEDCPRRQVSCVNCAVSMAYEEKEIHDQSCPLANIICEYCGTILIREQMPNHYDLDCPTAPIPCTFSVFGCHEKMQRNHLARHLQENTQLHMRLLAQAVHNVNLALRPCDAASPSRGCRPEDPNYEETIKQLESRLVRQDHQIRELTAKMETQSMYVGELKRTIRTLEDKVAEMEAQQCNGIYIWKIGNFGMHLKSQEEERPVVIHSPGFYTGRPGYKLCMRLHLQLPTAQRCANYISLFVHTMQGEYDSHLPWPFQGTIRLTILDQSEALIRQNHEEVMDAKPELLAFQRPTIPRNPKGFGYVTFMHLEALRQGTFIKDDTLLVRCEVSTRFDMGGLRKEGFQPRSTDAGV

[2] = biological target: T2, Flag-tagged TRAF6 coiled-coil TRAF-N domain and TRAF-C domain (amino acids 289-530) (mouse) (UniProt P70196)
T2 sequence: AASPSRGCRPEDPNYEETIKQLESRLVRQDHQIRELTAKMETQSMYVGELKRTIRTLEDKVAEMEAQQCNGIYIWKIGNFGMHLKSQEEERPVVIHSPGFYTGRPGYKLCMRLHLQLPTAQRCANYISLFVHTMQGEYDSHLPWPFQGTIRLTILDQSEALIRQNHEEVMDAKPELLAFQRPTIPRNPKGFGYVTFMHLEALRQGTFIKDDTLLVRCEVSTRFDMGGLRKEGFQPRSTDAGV

[3] = biological target: T3, Flag-tagged TRAF6 N-terminal ring and zinc-finger domains (amino acids 1-289) (mouse) (UniProt P70196)
T3 sequence: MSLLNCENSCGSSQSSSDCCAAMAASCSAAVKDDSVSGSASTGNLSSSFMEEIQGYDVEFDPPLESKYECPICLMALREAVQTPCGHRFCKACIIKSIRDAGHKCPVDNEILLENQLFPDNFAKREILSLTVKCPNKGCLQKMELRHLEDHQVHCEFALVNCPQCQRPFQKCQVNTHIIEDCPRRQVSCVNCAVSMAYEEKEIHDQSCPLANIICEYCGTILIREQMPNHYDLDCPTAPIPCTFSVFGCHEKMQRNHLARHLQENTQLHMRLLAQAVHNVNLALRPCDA

binding [1] | binding [2] | binding [3] | Substance
binds | binds | no binding | HA-tagged murine Pim1 (from UniProt P06803 1-313) (enzyme)
binds |  |  | Myc-tagged AKT1 (from UniProt P31749 1-480) (enzyme)
